Construct, isoform or probe ends are uncertain for at least one entry. For part of these data: A negative result means that nothing was seen under these conditions. For part of these data: Protein sequences can lack the tags named with them. For part of these data: Weaker means in comparison with the reference protein, sequence or condition of that experiment. For part of these data: At least one verdict rests on a figure or table, not on a statement of the authors.
Tests used:
Experiment in all cases: EMSA
[1] = target: T1, FtMADS1 (Fagopyrum tataricum) (UniProt A0A9E8G182); settings: LightShift Chemiluminescent EMSA Kit (Thermo), manufacturer's instructions, 5' biotinylated probes, pH and temperature not stated, recombinant protein, protein details: GST (FtMADS1-GST, pGEX-4T-1 per pull-down Methods)
T1 sequence (looked up, limits assumed): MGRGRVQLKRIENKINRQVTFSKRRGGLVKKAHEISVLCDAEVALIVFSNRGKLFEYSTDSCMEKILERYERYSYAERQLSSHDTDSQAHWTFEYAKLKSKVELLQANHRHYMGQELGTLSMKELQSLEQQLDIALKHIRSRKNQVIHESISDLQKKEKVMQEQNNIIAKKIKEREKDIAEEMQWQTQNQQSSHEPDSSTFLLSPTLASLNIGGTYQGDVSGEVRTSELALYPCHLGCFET

[2] = tested on: FtMADS1 + FtMADS2 + FtPAK; settings: ATP, FtMADS1, FtMADS2 and FtPAK co-incubated, DNA-bound component not established; LightShift Chemiluminescent EMSA Kit (Thermo), manufacturer's instructions; 5' biotinylated probes; pH and temperature not stated; recombinant protein; label: 5' biotin
[3] = tested on: FtMADS2 (Fagopyrum tataricum); settings: LightShift Chemiluminescent EMSA Kit (Thermo), manufacturer's instructions; 5' biotinylated probes; pH and temperature not stated; recombinant protein; protein details: GST (FtMADS2-GST, pGEX-4T-1 per pull-down Methods); label: 5' biotin

Sequence	binding result ([1]; label: 5' biotin)	binding result [2]	binding result [3]	binding result ([1]; FtMADS2 present, label: 5' biotin)	binding result [1]
AAATCCATATAAAGATTTAAATCCATATAAAGATTTAAATCCATATAAAGATTTAAATCCATATAAAGATTTAAATCCATATAAAGATTT (double strand) [5×BOX1]	no binding	–	–	–	–
TAGTTCTAAAAAGGAAATTATAGTTCTAAAAAGGAAATTATAGTTCTAAAAAGGAAATTATAGTTCTAAAAAGGAAATTATAGTTCTAAAAAGGAAATTA (double strand) [5×BOX2]	binds	binds	no binding	no binding	–
TAGTTCTAAAAATTCCCTTATAGTTCTAAAAATTCCCTTATAGTTCTAAAAATTCCCTTATAGTTCTAAAAATTCCCTTATAGTTCTAAAAATTCCCTTA (double strand) [mut 5×BOX2]	–	–	–	–	binds more weakly

From paper PMC11578379
